Assay results: PubChem BioAssay AID488837 (National Center for Advancing Translational Sciences (NCATS), 2010)
Among all 330,000 compounds or so, about 20 (0.006%) were called active. Inconclusive results, whose numbers are uncertain, are shown with a selection of clear calls. Calls follow the shape of the dose curve; as a rule, active = well fitted inhibition curve with a large enough effect; inconclusive = small, poorly fitted or top-dose-only effect, or effect the other way; inactive = flat fitted curve, though single readings scatter. Where the call is inconclusive, the potency comes from a doubtful curve fit.

The chains behind the UniProt entries cited, without tags or fusion partners. Where a name states a change or a piece, a line headed by the entry shows the natural chain unless it says otherwise.
UniProt O00167: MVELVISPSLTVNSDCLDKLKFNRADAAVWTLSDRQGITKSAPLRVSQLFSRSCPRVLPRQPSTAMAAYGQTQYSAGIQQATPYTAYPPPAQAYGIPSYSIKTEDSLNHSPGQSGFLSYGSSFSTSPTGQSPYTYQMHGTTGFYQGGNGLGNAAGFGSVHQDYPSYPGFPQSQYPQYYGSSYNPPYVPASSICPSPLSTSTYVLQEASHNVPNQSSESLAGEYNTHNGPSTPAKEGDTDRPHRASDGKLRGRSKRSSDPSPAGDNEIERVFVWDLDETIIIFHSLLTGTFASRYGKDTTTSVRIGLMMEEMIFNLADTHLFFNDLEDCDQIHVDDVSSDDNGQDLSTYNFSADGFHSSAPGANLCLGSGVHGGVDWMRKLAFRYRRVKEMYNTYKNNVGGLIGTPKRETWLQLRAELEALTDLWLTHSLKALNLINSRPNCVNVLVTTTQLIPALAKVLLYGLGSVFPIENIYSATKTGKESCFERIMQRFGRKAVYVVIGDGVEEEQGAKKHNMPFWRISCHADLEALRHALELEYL

Molecular target: Protein phosphatase EYA2 (Homo sapiens) (UniProt O00167)
Assay: qHTS Assay for Inhibitors of the Phosphatase Activity of Eya2
Conditions: recombinant Eya2, OMFP fluorescence dephosphorylation (OMFP is methylfluorescein phosphate)
Method in brief: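 Eya2 (0.2 uM) preincubated 10 min at ambient with compound, then OMFP substrate added at 50 uM; 10 min reaction in 50 mM HEPES pH 7.5, 50 mM NaCl, 5 uM MgCl2, 0.05% BSA, 1 mM DTT. Fluorescence read at Ex 485/Em 525 nm.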
Potency is read from the fitted curve at half-maximal effect.

Structure (SMILES) | Potency
O=C1NC(=S)S/C1=C\C=C\c1ccc([N+](=O)[O-])o1 | inactive
CNC(=S)N/N=C/c1cn(CCOc2ccc(OC)cc2)c2ccccc12 | inactive
COc1ccc(NC(=O)c2cc(-c3ccccc3Cl)on2)cc1OC | inconclusive: 15.8 µM [inhibitor, single point]
Clc1ccc(Cl)c(OCc2cc(-c3ccccc3Cl)on2)c1 | inconclusive: 20 µM [inhibitor, single point]
Fc1ccc2[nH]c3c(NCc4ccccc4)ncnc3c2c1 | inconclusive: 100 µM [inhibitor, single point]
Cc1ccc(C(=O)NC(Cc2c[nH]c3ccccc23)C(=O)O)cc1 (stereo not given) | inactive
CCc1nnc2n1N=C(c1ccc([N+](=O)[O-])cc1)CS2 | inconclusive: 20 µM [inhibitor, single point]
CC(=O)c1cccc(N(CC(=O)NC2CCCCC2)C(=O)Cn2nnc(-c3ccccc3)n2)c1 | inconclusive: 79.4 µM [inhibitor, partial curve]
CNC(=O)COC(=O)/C=C/c1cn(-c2ccccc2)nc1-c1ccc(C)o1 | inconclusive: 89.1 µM [inhibitor, single point]
CCOc1ccccc1C(=O)Nc1nn[nH]n1 | inconclusive: 200 µM [inhibitor, partial curve, poor fit]
CCc1ccc(OCC(=O)NC(NC(=S)Nc2ccc(C)cc2C)C(Cl)(Cl)Cl)cc1 (stereo not given) | inconclusive: 28.2 µM [inhibitor, partial curve]
COc1ccc(Cc2nnc(NC(=O)c3ccccc3F)s2)cc1 | inconclusive: 100 µM [inhibitor, single point]
COc1ccc(C(=O)c2cc([N+](=O)[O-])ccc2N2CCN(C)CC2)cc1 | inconclusive: 79.4 µM [inhibitor, single point]
COc1cccc(NC(=O)Cn2c3ccccc3c3nc4n(c(=O)c32)CCS4)c1 | inconclusive: 100 µM [inhibitor, single point]
Cn1ccs/c1=N\S(=O)(=O)c1ccc(C(C)(C)C)cc1 | inconclusive: 14.1 µM [inhibitor, single point]
CCOc1ccc(C(=O)c2ccc([N+](=O)[O-])cc2Cl)cc1 | inconclusive: 100 µM [inhibitor, single point]
COc1ccc(Nc2nc(-c3ccc4c(c3)NC(=O)CO4)cs2)cc1 | inconclusive: 100 µM [inhibitor, single point]
Cc1ccc(C)c(CNS(=O)(=O)c2c(C)[nH]c(C)c2C(=O)N2CCCC2)c1 | inconclusive: 12.6 µM [inhibitor, single point]
CCOC(=O)C1CCN(S(=O)(=O)c2c(C)[nH]c(C)c2C(=O)N2CCCC2)CC1 | inconclusive: 28.2 µM [inhibitor, single point]
Cc1cc(C)cc(C(=O)OCC(=O)Nc2ncccn2)c1 | inactive
CCOC(=O)CCSc1nc(C)cc(C(F)(F)F)c1C#N | inconclusive: 63.1 µM [inhibitor, single point]
CCc1ccc(CN(C)C(=O)CCc2nc3ccccc3n(-c3ccc(OC)cc3)c2=O)cc1 | inconclusive: 100 µM [inhibitor, single point]

Among those listed so far, 11 have sulfur.
Structure (SMILES) | Potency
O=C1NC(=S)S/C1=C\C=C\c1ccc([N+](=O)[O-])o1 | inactive
CNC(=S)N/N=C/c1cn(CCOc2ccc(OC)cc2)c2ccccc12 | inactive
CCc1nnc2n1N=C(c1ccc([N+](=O)[O-])cc1)CS2 | inconclusive: 20 µM [inhibitor, single point]
CCc1ccc(OCC(=O)NC(NC(=S)Nc2ccc(C)cc2C)C(Cl)(Cl)Cl)cc1 (stereo not given) | inconclusive: 28.2 µM [inhibitor, partial curve]
COc1ccc(Cc2nnc(NC(=O)c3ccccc3F)s2)cc1 | inconclusive: 100 µM [inhibitor, single point]
COc1cccc(NC(=O)Cn2c3ccccc3c3nc4n(c(=O)c32)CCS4)c1 | inconclusive: 100 µM [inhibitor, single point]
Cn1ccs/c1=N\S(=O)(=O)c1ccc(C(C)(C)C)cc1 | inconclusive: 14.1 µM [inhibitor, single point]
COc1ccc(Nc2nc(-c3ccc4c(c3)NC(=O)CO4)cs2)cc1 | inconclusive: 100 µM [inhibitor, single point]
Cc1ccc(C)c(CNS(=O)(=O)c2c(C)[nH]c(C)c2C(=O)N2CCCC2)c1 | inconclusive: 12.6 µM [inhibitor, single point]
CCOC(=O)C1CCN(S(=O)(=O)c2c(C)[nH]c(C)c2C(=O)N2CCCC2)CC1 | inconclusive: 28.2 µM [inhibitor, single point]
CCOC(=O)CCSc1nc(C)cc(C(F)(F)F)c1C#N | inconclusive: 63.1 µM [inhibitor, single point]

Going on with the list.

Structure (SMILES) | Potency
CCC(C)NC(=O)c1cc2cc3ccc(OC)cc3nc2o1 (stereo not given) | inconclusive: 112 µM [inhibitor, single point]
N#CC1(NC(=O)COc2ccc3ccc(=O)oc3c2)CCCCC1 | inactive
O=C(CSC(=S)N1CCCCC1)Nc1nc(-c2ccccc2)c(-c2ccccc2)o1 | inconclusive: 31.6 µM [inhibitor, partial curve]
CC(C)N(C(=S)NC1CC2CCC1C2)c1ccccc1 (stereo not given) | inconclusive: 89.1 µM [inhibitor, single point]
CCOC(=O)Cc1cc(-c2ccc(O)cc2)nc2ccc3ccccc3c12 | inactive
CCNC(=O)N(C)C[C@H]1N[C@@](CC)(C(=O)OC)[C@H]2C(=O)N(C)C(=O)[C@@H]12 | inconclusive: 89.1 µM [inhibitor, single point]
Cc1cccc(N(C)C(=O)CCS(=O)(=O)c2cc3c(cc2Cl)NC(=O)CO3)c1 | inconclusive: 17.8 µM [inhibitor, single point]
COc1cccc(CNS(=O)(=O)c2ccc3c(c2)CC(C)N3C(C)=O)c1 (stereo not given) | inconclusive: 22.4 µM [inhibitor, single point]
O=C(Cc1ccc(Br)cc1)NCCCn1ccnc1 | inconclusive: 44.7 µM [inhibitor, partial curve]
CCN(CC)C(=O)c1ccc2nc(-c3ccccc3)c(-c3ccccc3)nc2c1 | inactive
CCNC(=O)NC(=O)C(C)OC(=O)Cc1coc2cc3c(cc12)CCC3 (stereo not given) | inconclusive: 141 µM [inhibitor, partial curve, poor fit]
O=C(NCC1CCCO1)c1nn2c(C(F)(F)F)cc(-c3ccc(Br)o3)nc2c1Br (stereo not given) | inactive
Cc1ccccc1OCCn1cc(C(=S)N2CCN(C)CC2)c2ccccc21 | inconclusive: 100 µM [inhibitor, single point]
CCCCCOc1ccc(/C(C)=N/NC2=NCCN2)cc1 | inconclusive: 200 µM [inhibitor, single point]
COc1ccc(-c2ocnc2C(=O)N2CCN(C(=O)C(c3ccccc3)c3ccccc3)CC2)cc1 | inconclusive: 89.1 µM [inhibitor, single point]
Cc1ccccc1NC(=O)/C(=C/c1ccccc1)c1ccccc1 | inconclusive: 79.4 µM [inhibitor, single point]
Cc1ccc(N(C)C(=O)CCS(=O)(=O)c2cc3c(cc2Cl)NC(=O)CO3)cc1 | inconclusive: 22.4 µM [inhibitor, single point]
CC1=Nc2cc(C(=O)NCCN3CCOCC3)ccc2Sc2c(C)ccc(C)c21 | inconclusive: 100 µM [inhibitor, single point]
Cc1cccc(N2CCN(C(=O)C3CCN(c4ncnc5c4nc4n5CCCCC4)CC3)CC2)c1C | inactive
CN1C(=O)C(O)(CC(=O)c2ccncc2)c2ccccc21 (stereo not given) | inconclusive: 20 µM [inhibitor, single point]
Cc1ccc(C(=O)N/N=C/c2cc(Br)ccc2O)cn1 | inactive
O=C(NC1CCCCC1)C(c1ccc(F)cc1)N(C(=O)c1csnn1)C1CC1 (stereo not given) | inconclusive: 22.4 µM [inhibitor, partial curve]

Structure (SMILES) | Potency
CCN1C(=O)C(CC(=O)Nc2ccc(OC)cc2)N(CCc2ccc(OC)cc2)C1=S (stereo not given) | inconclusive: 100 µM [inhibitor, single point]
CCn1ccnc1CN(C)Cc1nc(-c2ccccc2)no1 | inconclusive: 126 µM [inhibitor, single point]
CC(C)(CO)C(O)C(=O)NCCC#N (stereo not given) | inconclusive: 5010 µM [inhibitor, partial curve, poor fit]
C#CCOCCOCCOCCNc1nc(N2CCN(C(=O)CCCCCCCCCCNC(=O)Cn3cc(C[C@@H](C)O)nn3)CC2)nc(N2CCN(C(=O)CCCCCCCCCCNC(=O)[C@H](CCCCN)n3cc(C[C@@H](C)CC)nn3)CC2)n1 | inactive
Cc1ccc2c(c1)CCCN2C(=O)c1cccs1 | inconclusive: 14.1 µM [inhibitor, partial curve]
COCc1cc(OC)nc(-c2csc(C)n2)n1 | inconclusive: 100 µM [inhibitor, single point]
CCN1C(=O)C(CC(=O)Nc2ccc(OC)cc2)N(CCc2ccccc2F)C1=S (stereo not given) | inconclusive: 141 µM [inhibitor, partial curve]
CC(C)Oc1c(Cl)cc(CNC(C)(C)CO)cc1Cl | inconclusive: 17.8 µM [inhibitor, single point]
COCCNC(=O)C1CC2Cn3c(nc4cc5ccccc5cc43)C2N1C (stereo not given) | inconclusive: 20 µM [inhibitor, single point]
CCOC(=O)C(=O)N1c2ccccc2C(N(C(=O)C(=O)OCC)c2ccccc2)CC1C (stereo not given) | inconclusive: 112 µM [inhibitor, single point]
Cc1ccc(NC(=S)NC2CCCC2)c(C)c1 | inconclusive: 22.4 µM [inhibitor, partial curve]
CCOC(=O)C1C(=O)CC(C)(O)C(C(=O)OCC)C1c1ccc(NC(C)=O)cc1 (stereo not given) | inconclusive: 100 µM [inhibitor, single point]
Cc1ccccc1NC1=C/C(=N\S(=O)(=O)c2cccs2)c2ccccc2C1=O | inconclusive: 63.1 µM [inhibitor, single point]
COc1cc(CN2CCN(CCCc3ccccc3)C(CCO)C2)cc(OC)c1O (stereo not given) | inconclusive: 22.4 µM [inhibitor, single point]
CCOc1ncccc1C(=O)Nc1nnc(C2CC2)s1 | inconclusive: 100 µM [inhibitor, single point]
c1ccc2c3c([nH]c2c1)CCNC3 | inconclusive: 100 µM [inhibitor, single point]
Cc1cccnc1NC(=O)Nc1ccccc1 | inconclusive: 89.1 µM [inhibitor, single point]
CCCCc1nnc2c(N(C)S(=O)(=O)c3ccc(C)cc3)nc3ccccc3n12 | inconclusive: 100 µM [inhibitor, single point]
COc1cc2c(c(O)c1OC)C(=O)C(OC)CCC2 (stereo not given) | inactive
COc1ccccc1CNC(=O)CN1c2cccc3cccc(c23)S1(=O)=O | inconclusive: 22.4 µM [inhibitor, single point]
CCOc1ccccc1CN1CCC(Oc2cccc(C(=O)NCCOC)c2)CC1 | inconclusive: 158 µM [inhibitor, partial curve, poor fit]

Reformatted in markdown: part of the list above

| Structure (SMILES) | Potency |
| --- | --- |
| CCOC(=O)C1C(=O)CC(C)(O)C(C(=O)OCC)C1c1ccc(NC(C)=O)cc1 (stereo not given) | inconclusive: 100 µM [inhibitor, single point] |
| COc1cc(CN2CCN(CCCc3ccccc3)C(CCO)C2)cc(OC)c1O (stereo not given) | inconclusive: 22.4 µM [inhibitor, single point] |
